# The list shows a part of the results. Many values rest on one well or one pass, so single values are uncertain.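 The apoptosis fraction was the count of cleaved-PARP antibody-stained nuclei relative to all DNA-stained nuclei, imaged in 1,536-well plates. Screening doses were set so most cells survived, and baseline and induced cleaved-PARP levels vary greatly across cell lines.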
# System: WM3619
# Experiment: cleaved PARP positive nuclei fraction relative to DMSO control; melanoma cells; higher = more apoptosis
# Conditions: library dose: low library concentration; 72 h
row,Structure (SMILES),cleaved PARP positive nuclei fraction [%]
1,"O=C(O)[C@@H]1[O][Sb](=[O])([O][Sb]2(=[O])[O][C@H]([C@H](O)CO)[C@H](O)[C@H](C(=O)O)[O]2)[O][C@H]([C@H](O)CO)[C@@H]1O (stereo partly specified) [stibogluconate] + O=C(O)c1ccc(-c2c[nH]c3ncc(-c4ccccc4)cc23)cc1C1CCCC1 [GSK650394] (first compound 2 µM, partner dose 0.16 µM)",80
2,"Cn1c(=O)n(-c2ccc(C(C)(C)C#N)cc2)c2c3cc(-c4cnc5ccccc5c4)ccc3ncc21 + CCCCCCCCCCCC1=C(O)C(=O)C=C(O)C1=O [Embelin] (first compound 0.004 µM, partner dose 1.2 µM)",107
3,"CN1CCN(c2ccc3nc(-c4c(N)c5c(F)cccc5[nH]c4=O)[nH]c3c2)CC1 [Dovitinib] + NCC(=O)Nc1ccc(-n2nc(C(F)(F)F)cc2-c2ccc3c(ccc4ccccc43)c2)cc1 [OSU03012] (first compound 0.1 µM, partner dose 1 µM)",175
4,"C=C(c1ccc(C(=O)O)cc1)c1cc2c(cc1C)C(C)(C)CCC2(C)C [Bexarotene] + Cc1cc([N+](=O)[O-])ccc1NS(=O)(=O)c1cc(Cl)ccc1Cl [FH535] (first compound 2 µM, partner dose 1 µM)",82.6
5,"Cc1cc(Nc2cc(N3CCN(C)CC3)nc(/C=C/c3ccccc3)n2)n[nH]1 + COC(=O)c1sccc1S(=O)(=O)Nc1ccc(Nc2ccccc2)cc1OC [GSK0660] (first compound 0.04 µM, partner dose 1 µM)",52.4
6,"CC(C)C[C@H](NC(=O)[C@H](Cc1ccccc1)NC(=O)c1cnccn1)B(O)O [Bortezomib] + Cc1cc([N+](=O)[O-])ccc1NS(=O)(=O)c1cc(Cl)ccc1Cl [FH535] (first compound 0.001 µM, partner dose 1 µM)",580
7,"CC(C)C[C@H](NC(=O)[C@H](Cc1ccccc1)NC(=O)c1cnccn1)B(O)O [Bortezomib] + O=C(CCCCCCC(=O)Nc1ccccc1)NO [vorinostat] (first compound 0.001 µM, partner dose 0.08 µM)",255
8,"Nc1ncn([C@H]2C[C@H](O)[C@@H](CO)O2)c(=O)n1 [decitabine] + COc1ccc2c(c1)CCC1C2CCC2(C)C(NCCCCCCN3C(=O)C=CC3=O)CCC12 [U73122] (first compound 0.1 µM, partner dose 0.4 µM)",63.8

# System: WM451Lu
# Experiment: as above
# Conditions: library dose: low library concentration; 72 h
row,Structure (SMILES),cleaved PARP positive nuclei fraction [%]
1,"Nc1ncn([C@H]2C[C@H](O)[C@@H](CO)O2)c(=O)n1 [decitabine] + COc1ccc(-c2ccc3c(N4CCOCC4)nc(N4C[C@@H](C)O[C@@H](C)C4)nc3n2)cc1CO [KU0063794] (first compound 0.1 µM, partner dose 0.02 µM)",273
2,"CS(=O)(=O)CCNCc1ccc(-c2ccc3ncnc(Nc4ccc(OCc5cccc(F)c5)c(Cl)c4)c3c2)o1 [lapatinib] + O=S(=O)(c1ccccc1)N(CC(F)(F)F)c1ccc(C(O)(C(F)(F)F)C(F)(F)F)cc1 [T0901317] (first compound 0.8 µM, partner dose 1.4 µM)",173
3,"Nc1ccn([C@@H]2O[C@H](CO)[C@@H](O)C2(F)F)c(=O)n1 [gemcitabine] + CC1(C)NC(=O)N(c2ccc([N+](=O)[O-])c(C(F)(F)F)c2)C1=O [nilutamide] (first compound 0.0004 µM, partner dose 1 µM)",16.6
4,"CCCS(=O)(=O)Nc1ccc(F)c(C(=O)c2c[nH]c3ncc(Cl)cc23)c1F + O=C1NC(=O)/C(=C/c2ccc(-c3ccc(F)cc3O)o2)S1 [AS252424] (first compound 0.08 µM, partner dose 1 µM)",65.5
5,"CNC(=O)c1cc(Oc2ccc(NC(=O)Nc3ccc(Cl)c(C(F)(F)F)c3)cc2)ccn1 [sorafenib] + C[C@@H]1CCN(C(=O)CC#N)C[C@@H]1N(C)c1ncnc2[nH]ccc12 [CP690550] (first compound 0.4 µM, partner dose 1 µM)",83.4
6,"Cc1cc(Nc2cc(N3CCN(C)CC3)nc(/C=C/c3ccccc3)n2)n[nH]1 + CN(C)S(=O)(=O)c1ccc2c(c1)/C(=C/c1cc3c([nH]1)CCCC3)C(=O)N2 [SU6656] (first compound 0.04 µM, partner dose 0.4 µM)",42
7,"Nc1ncn([C@H]2C[C@H](O)[C@@H](CO)O2)c(=O)n1 [decitabine] + CCCCCCCCCCCC1=C(O)C(=O)C=C(O)C1=O [Embelin] (first compound 0.1 µM, partner dose 1.2 µM)",78
8,"Nc1nc(F)nc2c1ncn2[C@@H]1O[C@H](CO)[C@@H](O)[C@@H]1O [fludarabine] + CCCCCCCCCCCC1=C(O)C(=O)C=C(O)C1=O [Embelin] (first compound 0.2 µM, partner dose 1.2 µM)",197
9,"O=C(O)c1ccc2c(c1)nc(Nc1cccc(Cl)c1)c1ccncc12 + COc1ccc2c(c1)CCC1C2CCC2(C)C(NCCCCCCN3C(=O)C=CC3=O)CCC12 [U73122] (first compound 0.4 µM, partner dose 0.4 µM)",67.9
10,"Nc1ccn([C@@H]2O[C@H](CO)[C@@H](O)C2(F)F)c(=O)n1 [gemcitabine] + CO[C@@H]1[C@H](N(C)C(=O)c2ccccc2)C[C@H]2O[C@]1(C)n1c3ccccc3c3c4c(c5c6ccccc6n2c5c31)C(=O)NC4 [Midostaurin] (first compound 0.0004 µM, partner dose 0.08 µM)",47.4
11,"CN1CCN(c2ccc3nc(-c4c(N)c5c(F)cccc5[nH]c4=O)[nH]c3c2)CC1 [Dovitinib] + O=C(O)C(=O)Nc1sc2c(c1C(=O)O)CCNC2 [TCS401] (first compound 0.1 µM, partner dose 1.66667 µM)",68.4
12,"Nc1ncn([C@H]2C[C@H](O)[C@@H](CO)O2)c(=O)n1 [decitabine] + COC(=O)c1sccc1S(=O)(=O)Nc1ccc(Nc2ccccc2)cc1OC [GSK0660] (first compound 0.1 µM, partner dose 1 µM)",74.6
13,"Cc1cc(Nc2cc(N3CCN(C)CC3)nc(/C=C/c3ccccc3)n2)n[nH]1 + Cc1cc(N2CCOCC2)cc2[nH]c(-c3c(NC[C@@H](O)c4cccc(Cl)c4)cc[nH]c3=O)nc12 [BMS536924] (first compound 0.04 µM, partner dose 0.2 µM)",102
14,"Cn1c(=O)n(-c2ccc(C(C)(C)C#N)cc2)c2c3cc(-c4cnc5ccccc5c4)ccc3ncc21 + NC(=O)Nc1cc(-c2cccc(F)c2)sc1C(=O)N[C@H]1CCCNC1 [AZD7762] (first compound 0.004 µM, partner dose 0.02 µM)",35.5
15,"C=C(c1ccc(C(=O)O)cc1)c1cc2c(cc1C)C(C)(C)CCC2(C)C [Bexarotene] + O=C(Nc1ccccc1)c1cc([N+](=O)[O-])ccc1Cl [GW9662] (first compound 2 µM, partner dose 2 µM)",457
16,"CNC(=O)c1cc(Oc2ccc(NC(=O)Nc3ccc(Cl)c(C(F)(F)F)c3)cc2)ccn1 [sorafenib] + COC(=O)c1sccc1S(=O)(=O)Nc1ccc(Nc2ccccc2)cc1OC [GSK0660] (first compound 0.4 µM, partner dose 1 µM)",56.4
17,"CNC(=O)c1cc(Oc2ccc(NC(=O)Nc3ccc(Cl)c(C(F)(F)F)c3)cc2)ccn1 [sorafenib] + CCCCCCCCCCCC1=C(O)C(=O)C=C(O)C1=O [Embelin] (first compound 0.4 µM, partner dose 1.2 µM)",105
18,"CS(=O)(=O)CCNCc1ccc(-c2ccc3ncnc(Nc4ccc(OCc5cccc(F)c5)c(Cl)c4)c3c2)o1 [lapatinib] + CN(C)S(=O)(=O)c1ccc2c(c1)/C(=C/c1cc3c([nH]1)CCCC3)C(=O)N2 [SU6656] (first compound 0.8 µM, partner dose 0.4 µM)",103
19,"C[C@@H](Oc1cc(-c2cnn(C3CCNCC3)c2)cnc1N)c1c(Cl)ccc(F)c1Cl [Crizotinib] + CCCCCCCCCCCC1=C(O)C(=O)C=C(O)C1=O [Embelin] (first compound 0.2 µM, partner dose 1.2 µM)",41.2
20,"Nc1nc(F)nc2c1ncn2[C@@H]1O[C@H](CO)[C@@H](O)[C@@H]1O [fludarabine] + Cc1cc(N2CCOCC2)cc2[nH]c(-c3c(NC[C@@H](O)c4cccc(Cl)c4)cc[nH]c3=O)nc12 [BMS536924] (first compound 0.2 µM, partner dose 0.2 µM)",355
21,"Cc1cc(Nc2cc(N3CCN(C)CC3)nc(/C=C/c3ccccc3)n2)n[nH]1 + COc1ccc(COc2ccc(Cc3cnc(N)nc3N)cc2OC)cc1 [GW2580] (first compound 0.04 µM, partner dose 1 µM)",236
22,"CNC(=O)c1cc(Oc2ccc(NC(=O)Nc3ccc(Cl)c(C(F)(F)F)c3)cc2)ccn1 [sorafenib] + NCC(=O)Nc1ccc(-n2nc(C(F)(F)F)cc2-c2ccc3c(ccc4ccccc43)c2)cc1 [OSU03012] (first compound 0.4 µM, partner dose 1 µM)",48.1
23,"Cc1cc(Nc2cc(N3CCN(C)CC3)nc(/C=C/c3ccccc3)n2)n[nH]1 + OCCn1cc(-c2cnc3nnn(Cc4ccc5ncccc5c4)c3n2)cn1 [PF04217903] (first compound 0.04 µM, partner dose 1 µM)",44.1

# For convenience, some entries already given:
row,Structure (SMILES),cleaved PARP positive nuclei fraction [%]
1,"Nc1ncn([C@H]2C[C@H](O)[C@@H](CO)O2)c(=O)n1 [decitabine] + COc1ccc(-c2ccc3c(N4CCOCC4)nc(N4C[C@@H](C)O[C@@H](C)C4)nc3n2)cc1CO [KU0063794] (first compound 0.1 µM, partner dose 0.02 µM)",273
2,"CS(=O)(=O)CCNCc1ccc(-c2ccc3ncnc(Nc4ccc(OCc5cccc(F)c5)c(Cl)c4)c3c2)o1 [lapatinib] + O=S(=O)(c1ccccc1)N(CC(F)(F)F)c1ccc(C(O)(C(F)(F)F)C(F)(F)F)cc1 [T0901317] (first compound 0.8 µM, partner dose 1.4 µM)",173
3,"Nc1ccn([C@@H]2O[C@H](CO)[C@@H](O)C2(F)F)c(=O)n1 [gemcitabine] + CC1(C)NC(=O)N(c2ccc([N+](=O)[O-])c(C(F)(F)F)c2)C1=O [nilutamide] (first compound 0.0004 µM, partner dose 1 µM)",16.6
4,"CCCS(=O)(=O)Nc1ccc(F)c(C(=O)c2c[nH]c3ncc(Cl)cc23)c1F + O=C1NC(=O)/C(=C/c2ccc(-c3ccc(F)cc3O)o2)S1 [AS252424] (first compound 0.08 µM, partner dose 1 µM)",65.5
5,"CNC(=O)c1cc(Oc2ccc(NC(=O)Nc3ccc(Cl)c(C(F)(F)F)c3)cc2)ccn1 [sorafenib] + C[C@@H]1CCN(C(=O)CC#N)C[C@@H]1N(C)c1ncnc2[nH]ccc12 [CP690550] (first compound 0.4 µM, partner dose 1 µM)",83.4
6,"Cc1cc(Nc2cc(N3CCN(C)CC3)nc(/C=C/c3ccccc3)n2)n[nH]1 + CN(C)S(=O)(=O)c1ccc2c(c1)/C(=C/c1cc3c([nH]1)CCCC3)C(=O)N2 [SU6656] (first compound 0.04 µM, partner dose 0.4 µM)",42
